Experimental findings from PubChem BioAssay AID248 (DTP/NCI, 2004) are described below.

In this assay the test system is L1210 leukemia ip in BDF1 mice, survival T/C. Put plainly: NCI In Vivo Anticancer Drug Screen. Data for tumor model L1210 Leukemia (intraperitoneal) in B6D2F1 (BDF1) mice. As to conditions: T/C endpoint: mean survival time, higher T/C = longer survival.
The mark [1] stands for this setting: dose: 50.0 mg/kg/injection, schedule: Q01DX001 (ip), vehicle: saline.
Where [2] appears, read: dose: 100.0 mg/kg/injection, schedule: Q01DX001 (ip), vehicle: saline.
[3] abbreviates: dose: 200.0 mg/kg/injection, schedule: Q01DX001 (ip), vehicle: saline.
Where [4] appears, read: dose: 400.0 mg/kg/injection, schedule: Q01DX001 (ip), vehicle: saline.
[5] abbreviates: dose: 400.0 mg/kg/injection, schedule: Q01DX001 (ip), vehicle: carboxymethylcellulose (CMC).
Setting [6] is: dose: 200.0 mg/kg/injection, schedule: Q04DX003 (ip), vehicle: Klucel (hydroxypropylcellulose) (HPC).
Where [7] appears, read: dose: 400.0 mg/kg/injection, schedule: Q04DX003 (ip), vehicle: Klucel (hydroxypropylcellulose) (HPC).
[8] abbreviates: dose: 200.0 mg/kg/injection, schedule: Q04DX002 (ip), vehicle: saline.
Setting [9] is: dose: 400.0 mg/kg/injection, schedule: Q04DX002 (ip), vehicle: saline.
[10] abbreviates: dose: 400.0 mg/kg/injection, schedule: Q01DX009 (ip), vehicle: saline with Tween-80.

The structures appear in SMILES notation. The list is a part of this screen's results and no random one: it is rich in T/C values a quarter to a half above the control, in often repeated tests (any T/C) and in doses without a T/C. Other doses and runs of a compound stand elsewhere. T/C is the treated group as % of the vehicle group. Some entries give survivors of the animals treated and no T/C: the source holds a T/C of zero for them, seemingly a mark for toxic or unscored doses. Some survivor counts are full or nearly so, which does not show that the dose was tolerated: survival well below the control is almost never listed, so the zero probably covers shortened survival too. Counts of survivors are from the toxicity check (mostly the fifth day) where no day follows; animals may have died later. Schedule codes are those of the source, taken here to give the interval after Q, in days (D) or hours (H), and the number of doses after X. Some entries hold several experiments; the results are listed from low to high. Where survival is the endpoint, the PubChem record calls one and a half times the control and up active, and a quarter to a half above the control has no call in these data; cut-offs in other NCI protocols can differ.

With `CC(=O)Nc1cc(N(CCOS(C)(=O)=O)CCOS(C)(=O)=O)ccc1N=O`, the T/C (dose: 0.4 mg/kg/injection, schedule: Q01DX015 (ip), vehicle: saline) is 130 % of control; the T/C (dose: 0.6 mg/kg/injection, schedule: Q01DX015 (ip), vehicle: saline) is 125 % of control; the T/C (dose: 2.2 mg/kg/injection, schedule: Q01DX001 (ip), vehicle: saline) is 129 % of control; the T/C (dose: 3.3 mg/kg/injection, schedule: Q01DX001 (ip), vehicle: saline) is 131 % of control; the T/C (dose: 5.0 mg/kg/injection, schedule: Q01DX001 (ip), vehicle: saline) is 126 and 128 % of control. Besides, the survivor count runs as follows: (dose: 20.0 mg/kg/injection, schedule: Q01DX001 (ip), vehicle: saline) 2 of 4; (dose: 40.0 mg/kg/injection, schedule: Q01DX001 (ip), vehicle: saline) 1 of 4; under setting [1], 0 of 4; (dose: 80.0 mg/kg/injection, schedule: Q01DX001 (ip), vehicle: saline) 0 of 4; under setting [2], 0 of 4; under setting [3], 0 of 4. In addition, under setting [4], the survivor count is listed as 0 of 4.
As to `Cc1cc2nc(CBr)c(CBr)nc2cc1C`, the survivor count by setting is: (dose: 25.0 mg/kg/injection, schedule: Q04DX003 (ip), vehicle: saline with Tween-80) 4 of 6; (dose: 50.0 mg/kg/injection, schedule: Q04DX003 (ip), vehicle: saline with Tween-80) 0 of 6; (dose: 100.0 mg/kg/injection, schedule: Q04DX003 (ip), vehicle: saline with Tween-80) 4 of 6; (dose: 200.0 mg/kg/injection, schedule: Q04DX003 (ip), vehicle: saline with Tween-80) 0 of 6; (dose: 400.0 mg/kg/injection, schedule: Q04DX003 (ip), vehicle: saline with Tween-80) 0 of 6.
Turning to `c1ccc2c(c1)cc[n+]1c3ccccc3ccc21`, the survivor count reads like this: under setting [1], 0 of 6; under setting [2], 0 of 6; under setting [3], 0 of 6; under setting [4], 0 of 6.
As for `CC(=O)Nc1cccc(C[P+](c2ccccc2)(c2ccccc2)c2ccccc2)c1`, the survivor count under setting [5] is reported as 0 of 4.
Take `CCSc1ncnc2c1ncn2C1OC(CO)C(O)C1O` (stereo not given): the T/C (dose: 300.0 mg/kg/injection, schedule: Q04DX003 (ip), vehicle: saline with Tween-80) was 129 % of control.
For `CN(CC(O)COc1ccccc1)CC1CCCO1` (stereo not given), the survivor count reads like this: under setting [6], 2 of 6; under setting [7], 0 of 6.
With `O=[N+]([O-])c1cc(S(=O)(=O)c2ccc(O)c([N+](=O)[O-])c2)ccc1O`, the survivor count is reported as 2 of 3 under setting [8] and 1 of 3 under setting [9].
In the case of `N#CCCN(C(=O)Nc1cccc(C(F)(F)F)c1)C1CCCCC1`, the survivor count (dose: 200.0 mg/kg/injection, schedule: Q04DX003 (ip), vehicle: carboxymethylcellulose (CMC)) is on record as 3 of 3; the survivor count (dose: 400.0 mg/kg/injection, schedule: Q01DX009 (ip), vehicle: carboxymethylcellulose (CMC)) was 6 of 6; the survivor count (dose: 400.0 mg/kg/injection, schedule: Q04DX002 (ip), vehicle: carboxymethylcellulose (CMC)) was 6 of 6; the survivor count (dose: 400.0 mg/kg/injection, schedule: Q04DX003 (ip), vehicle: carboxymethylcellulose (CMC)) is 3 of 3.
Regarding `CN1CC(=O)n2c(cc3ccccc32)C1=O`, the T/C under setting [8] was 125 % of control.
For `CN(C)CCC(=O)c1ccc(Cl)cc1`, the survivor count (dose: 200.0 mg/kg/injection, schedule: Q01DX009 (ip), vehicle: saline) was 1 of 3 and 2 of 6; the survivor count under setting [4] is on record as 0 of 6; the survivor count under setting [9] was 0 of 3 and 0 of 6.
With `O=[N+]([O-])c1cccn2ncnc12`, the survivor count reads like this: (dose: 100.0 mg/kg/injection, schedule: Q01DX001 (ip), vehicle: acetone) 0 of 6; (dose: 200.0 mg/kg/injection, schedule: Q01DX001 (ip), vehicle: acetone) 0 of 6; (dose: 400.0 mg/kg/injection, schedule: Q01DX001 (ip), vehicle: acetone) 0 of 6.
Take `CC1(C)N=C(N)N=C(N)N1c1cccc(C(=O)c2ccccc2)c1`: the survivor count (dose: 100.0 mg/kg/injection, schedule: Q01DX001 (ip), vehicle: saline with Tween-80) is 1 of 6.
With `COc1cc2[nH]c(C)c(CCN3CCN(c4ccccc4)CC3)c2cc1OC`, the survivor count runs as follows: (dose: 50.0 mg/kg/injection, schedule: Q01DX009 (ip), vehicle: Klucel (hydroxypropylcellulose) (HPC)) 0 of 6; (dose: 100.0 mg/kg/injection, schedule: Q04DX003 (ip), vehicle: Klucel (hydroxypropylcellulose) (HPC)) 0 of 4; under setting [6], 0 of 4; under setting [7], 0 of 4.
For the molecule `CC(C)c1ccc(C(=O)O)cc1S(=O)(=O)F`, the survivor count under setting [10] is 0 of 6.
As to `CC1CC([P+](c2ccccc2)(c2ccccc2)c2ccccc2)=NN1CC[P+](c1ccccc1)(c1ccccc1)c1ccccc1` (stereo not given), the survivor count runs as follows: (dose: 25.0 mg/kg/injection, schedule: Q01DX001 (ip), vehicle: saline) 0 of 6; under setting [1], 0 of 6; under setting [2], 0 of 6; under setting [3], 0 of 6; under setting [4], 0 of 6.
With `CNc1nc(SCc2ccccc2)c2ncn(C3OC(CO)C(O)C3O)c2n1` (stereo not given), the survivor count under setting [5] was 0 of 4.
With `CC(CCc1ccccc1)N(C)C(=O)CNC(=O)CN1C(=O)c2ccccc2C1=O` (stereo not given), the survivor count under setting [4] is 2 of 4.
Regarding `Nc1ncnc2c1cnn2CCCl`, the T/C was 125 % of control (dose: 200.0 mg/kg/injection, schedule: Q04DX003 (ip), vehicle: saline) and 128 % of control (dose: 300.0 mg/kg/injection, schedule: Q04DX003 (ip), vehicle: saline).
Regarding `CCCCCCCCCCCCCCCCCCSC(=N)N`, the survivor count is listed as 5 of 6 (dose: 200.0 mg/kg/injection, schedule: Q01DX009 (ip), vehicle: saline with Tween-80) and 3 of 6 under setting [10].
